# Source: paper PMC10029841
# By UniProt entry, the sequences of proteins in these tests, tags left out. Residues count along the entry.
# UniProt P14151, 39-372: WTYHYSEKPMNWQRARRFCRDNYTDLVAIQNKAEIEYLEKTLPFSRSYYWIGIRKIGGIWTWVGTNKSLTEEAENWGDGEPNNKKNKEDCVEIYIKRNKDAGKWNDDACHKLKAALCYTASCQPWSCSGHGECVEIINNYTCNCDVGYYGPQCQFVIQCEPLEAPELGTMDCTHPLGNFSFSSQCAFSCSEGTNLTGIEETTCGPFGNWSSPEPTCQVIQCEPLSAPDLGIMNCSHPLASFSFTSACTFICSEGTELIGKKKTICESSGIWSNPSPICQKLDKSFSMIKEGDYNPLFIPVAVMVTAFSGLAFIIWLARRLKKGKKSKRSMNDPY
# UniProt Q13308, 31-1070: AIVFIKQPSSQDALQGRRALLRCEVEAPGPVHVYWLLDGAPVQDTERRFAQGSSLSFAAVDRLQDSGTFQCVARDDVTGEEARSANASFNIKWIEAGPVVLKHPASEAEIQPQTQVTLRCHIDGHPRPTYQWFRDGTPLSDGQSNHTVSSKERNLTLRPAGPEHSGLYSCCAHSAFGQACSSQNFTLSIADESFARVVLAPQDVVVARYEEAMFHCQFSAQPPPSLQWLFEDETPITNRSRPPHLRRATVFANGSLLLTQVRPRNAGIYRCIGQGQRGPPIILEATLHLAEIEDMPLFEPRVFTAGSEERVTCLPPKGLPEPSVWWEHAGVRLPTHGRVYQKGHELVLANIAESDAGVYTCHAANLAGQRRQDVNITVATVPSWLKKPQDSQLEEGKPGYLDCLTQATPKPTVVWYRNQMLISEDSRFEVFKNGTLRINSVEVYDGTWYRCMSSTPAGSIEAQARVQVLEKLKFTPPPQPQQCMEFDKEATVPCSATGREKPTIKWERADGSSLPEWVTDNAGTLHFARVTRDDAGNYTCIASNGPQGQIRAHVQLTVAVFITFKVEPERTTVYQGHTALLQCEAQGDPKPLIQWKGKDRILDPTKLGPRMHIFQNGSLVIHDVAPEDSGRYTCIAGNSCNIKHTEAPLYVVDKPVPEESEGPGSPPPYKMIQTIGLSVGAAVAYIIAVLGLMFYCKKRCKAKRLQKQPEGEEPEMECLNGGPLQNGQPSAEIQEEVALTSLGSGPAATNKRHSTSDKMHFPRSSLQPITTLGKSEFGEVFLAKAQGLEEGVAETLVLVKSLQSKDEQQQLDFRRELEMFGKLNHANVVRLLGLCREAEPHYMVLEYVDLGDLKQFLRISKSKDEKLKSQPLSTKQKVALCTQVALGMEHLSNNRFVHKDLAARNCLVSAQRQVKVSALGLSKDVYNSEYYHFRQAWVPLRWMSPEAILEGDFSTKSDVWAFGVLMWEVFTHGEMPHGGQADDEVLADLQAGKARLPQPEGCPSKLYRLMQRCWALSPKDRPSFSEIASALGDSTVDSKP
# Construct, isoform or probe ends are uncertain for at least one entry. At least one result comes from cells or an extract, where the contact may be indirect. At least one verdict was read from the data and is not stated in words by the source.
# Assays:
# Assay in all cases: flow cytometry (whole cells)
# [1] = molecular target: CD62L on Jurkat cells (Homo sapiens) (UniProt P14151); details: Jurkat, 250 nM, DPBS with 4.5 g/L glucose, 5 mM MgCl2, 0.1 mg/mL yeast tRNA, 1 mg/mL BSA, 4 °C, 45 min, protein on the cell surface, folded or branched DNA
# [2] = molecular target: transferrin receptor 1 on K562 cells (UniProt P02786); details: K562, 250 nM, DPBS with 4.5 g/L glucose, 5 mM MgCl2, 0.1 mg/mL yeast tRNA, 1 mg/mL BSA, 4 °C, 45 min, protein on the cell surface, folded or branched DNA
# [3] = molecular target: tyrosine-protein kinase 7 (PTK7) on CCRF-CEM cells (UniProt Q13308); details: CCRF-CEM, 250 nM, DPBS with 4.5 g/L glucose, 5 mM MgCl2, 0.1 mg/mL yeast tRNA, 1 mg/mL BSA, 4 °C, 45 min, protein on the cell surface, folded or branched DNA
# [4] = molecular target: transferrin receptor 1 on CCRF-CEM cells (UniProt P02786); details: CCRF-CEM, 250 nM, DPBS with 4.5 g/L glucose, 5 mM MgCl2, 0.1 mg/mL yeast tRNA, 1 mg/mL BSA, 4 °C, 45 min, protein on the cell surface, folded or branched DNA
sequence,measurement,setting,value
TAGCCAAGGTAACCAGTACAAGGTGCTAAACGTAATGGCTTCGGCTTAC / TAGCCAAGGTAACCAGTACAAGGTGCTAAACGTAATGGCTTCGGCTTAC [LD201t1~LD201t1],binding result,"[1]; stronger than LD201t1, 5',3'-diazide joined to 5',3'-diDBCO strand by SPAAC, circular",binds
ACTCATAGGGTTAGGGGCTGCTGGCCAGATACTCAGATGGTAGGGTTACTATGAGC / ACTCATAGGGTTAGGGGCTGCTGGCCAGATACTCAGATGGTAGGGTTACTATGAGC [XQ-2d~XQ-2d],binding result,"[2]; stronger than XQ-2d, 5',3'-diazide joined to 5',3'-diDBCO strand by SPAAC, circular",binds
ATCTAACTGCTGCGCCGCCGGGAAAATACTGTACGGTTAGA [Sgc8c],binding result,[3],binds
TAGCCAAGGTAACCAGTACAAGGTGCTAAACGTAATGGCTTCGGCTTAC [LD201t1],binding result,[1],binds
ATCTAACTGCTGCGCCGCCGGGAAAATACTGTACGGTTAGA / ATCTAACTGCTGCGCCGCCGGGAAAATACTGTACGGTTAGA [Sgc8c~Sgc8c],binding result,"[3]; stronger than Sgc8c, 5',3'-diazide joined to 5',3'-diDBCO strand by SPAAC, circular",binds
ACTCATAGGGTTAGGGGCTGCTGGCCAGATACTCAGATGGTAGGGTTACTATGAGC [XQ-2d],binding result,[4],binds
same,binding result,[2],binds
ATCTAACTGCTGCGCCGCCGGGAAAATACTGTACGGTTAGA / ACTCATAGGGTTAGGGGCTGCTGGCCAGATACTCAGATGGTAGGGTTACTATGAGC [SXCBApt (Sgc8c~XQ-2d)],binding result,"[4]; stronger than monovalent, dual target with PTK7, 5',3'-diazide Sgc8c joined to 5',3'-diDBCO XQ-2d by SPAAC, circular",binds
same,binding result,"[3]; stronger than monovalent, dual target with TfR1, 5',3'-diazide Sgc8c joined to 5',3'-diDBCO XQ-2d by SPAAC, circular",binds
